Test results reported in the supplement of paper PMC10849652.
The other results are listed elsewhere or left out.

Protein sequences, listed by entry. Tags and fused reporters are not part of them. Lines headed by an entry give the natural chain unless they say otherwise; changes in a name come on top.
UniProt P58004: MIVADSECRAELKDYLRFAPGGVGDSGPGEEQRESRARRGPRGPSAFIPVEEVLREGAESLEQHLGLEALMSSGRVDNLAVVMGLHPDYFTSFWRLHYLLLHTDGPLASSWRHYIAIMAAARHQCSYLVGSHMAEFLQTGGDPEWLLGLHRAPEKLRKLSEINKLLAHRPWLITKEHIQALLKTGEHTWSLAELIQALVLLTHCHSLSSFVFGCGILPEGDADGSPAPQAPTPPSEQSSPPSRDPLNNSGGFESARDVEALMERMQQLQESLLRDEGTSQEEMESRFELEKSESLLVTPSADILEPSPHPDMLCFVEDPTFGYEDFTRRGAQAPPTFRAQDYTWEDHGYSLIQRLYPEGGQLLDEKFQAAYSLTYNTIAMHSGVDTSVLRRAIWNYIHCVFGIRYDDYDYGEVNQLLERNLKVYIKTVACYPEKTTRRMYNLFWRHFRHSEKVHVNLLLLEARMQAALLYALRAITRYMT
UniProt O43765: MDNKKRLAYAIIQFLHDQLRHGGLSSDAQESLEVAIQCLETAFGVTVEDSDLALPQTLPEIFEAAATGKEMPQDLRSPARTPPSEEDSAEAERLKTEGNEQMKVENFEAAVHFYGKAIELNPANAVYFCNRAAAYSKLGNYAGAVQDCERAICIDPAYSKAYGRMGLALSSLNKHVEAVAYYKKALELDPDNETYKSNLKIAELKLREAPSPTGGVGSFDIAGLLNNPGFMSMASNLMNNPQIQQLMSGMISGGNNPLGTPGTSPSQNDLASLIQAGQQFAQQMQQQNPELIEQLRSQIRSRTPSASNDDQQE
UniProt Q9UQ13: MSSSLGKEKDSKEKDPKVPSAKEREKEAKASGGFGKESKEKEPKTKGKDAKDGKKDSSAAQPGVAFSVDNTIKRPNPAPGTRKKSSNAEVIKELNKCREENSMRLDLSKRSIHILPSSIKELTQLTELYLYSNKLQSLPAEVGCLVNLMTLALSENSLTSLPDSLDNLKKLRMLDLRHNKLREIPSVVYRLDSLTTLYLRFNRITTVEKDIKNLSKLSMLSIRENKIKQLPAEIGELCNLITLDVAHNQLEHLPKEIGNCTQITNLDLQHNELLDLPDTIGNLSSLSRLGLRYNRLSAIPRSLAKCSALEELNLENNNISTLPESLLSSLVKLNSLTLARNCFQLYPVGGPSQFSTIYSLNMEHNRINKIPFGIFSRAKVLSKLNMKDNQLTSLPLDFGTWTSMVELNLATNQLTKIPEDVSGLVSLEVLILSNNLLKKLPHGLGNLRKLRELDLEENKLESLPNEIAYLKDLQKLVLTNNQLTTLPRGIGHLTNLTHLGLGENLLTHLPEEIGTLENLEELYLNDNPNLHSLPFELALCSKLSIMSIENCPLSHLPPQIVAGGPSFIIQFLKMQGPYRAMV
UniProt Q9HD40: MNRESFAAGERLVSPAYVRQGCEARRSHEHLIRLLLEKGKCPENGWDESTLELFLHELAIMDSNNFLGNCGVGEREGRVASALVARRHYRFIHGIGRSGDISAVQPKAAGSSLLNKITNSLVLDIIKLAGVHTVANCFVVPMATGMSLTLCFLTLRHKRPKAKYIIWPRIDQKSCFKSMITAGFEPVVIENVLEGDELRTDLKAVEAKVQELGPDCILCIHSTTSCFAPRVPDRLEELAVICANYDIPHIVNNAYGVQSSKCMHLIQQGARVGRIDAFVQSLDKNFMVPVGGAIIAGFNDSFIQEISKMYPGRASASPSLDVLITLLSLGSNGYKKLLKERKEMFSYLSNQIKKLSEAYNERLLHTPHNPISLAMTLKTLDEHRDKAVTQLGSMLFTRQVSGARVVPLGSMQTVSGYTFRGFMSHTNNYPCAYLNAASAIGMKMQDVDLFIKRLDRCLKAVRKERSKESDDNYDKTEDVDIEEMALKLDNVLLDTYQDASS
UniProt Q9NRX5: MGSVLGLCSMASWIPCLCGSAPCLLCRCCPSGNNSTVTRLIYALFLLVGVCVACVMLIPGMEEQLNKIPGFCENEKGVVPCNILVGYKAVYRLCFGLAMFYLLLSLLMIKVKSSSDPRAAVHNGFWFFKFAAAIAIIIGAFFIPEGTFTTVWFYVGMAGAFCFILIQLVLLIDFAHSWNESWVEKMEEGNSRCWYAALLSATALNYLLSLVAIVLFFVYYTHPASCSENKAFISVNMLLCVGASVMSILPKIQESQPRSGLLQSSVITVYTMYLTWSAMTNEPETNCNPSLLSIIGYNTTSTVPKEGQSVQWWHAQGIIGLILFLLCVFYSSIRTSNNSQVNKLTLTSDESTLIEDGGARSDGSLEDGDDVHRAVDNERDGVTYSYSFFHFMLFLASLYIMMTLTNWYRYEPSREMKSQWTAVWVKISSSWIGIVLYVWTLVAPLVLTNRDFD
UniProt P36955: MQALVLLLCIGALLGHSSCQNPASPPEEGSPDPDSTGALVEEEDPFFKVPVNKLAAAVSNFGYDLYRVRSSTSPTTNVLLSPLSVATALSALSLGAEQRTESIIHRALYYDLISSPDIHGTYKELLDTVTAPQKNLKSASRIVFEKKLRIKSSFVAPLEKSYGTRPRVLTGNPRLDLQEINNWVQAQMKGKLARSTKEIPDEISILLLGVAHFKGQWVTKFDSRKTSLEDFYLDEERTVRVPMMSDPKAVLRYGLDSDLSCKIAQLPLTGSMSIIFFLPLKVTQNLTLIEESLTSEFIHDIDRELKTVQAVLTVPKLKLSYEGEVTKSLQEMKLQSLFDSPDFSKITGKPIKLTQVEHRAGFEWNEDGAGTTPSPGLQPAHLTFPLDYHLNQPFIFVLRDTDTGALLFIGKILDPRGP
UniProt Q96ST3: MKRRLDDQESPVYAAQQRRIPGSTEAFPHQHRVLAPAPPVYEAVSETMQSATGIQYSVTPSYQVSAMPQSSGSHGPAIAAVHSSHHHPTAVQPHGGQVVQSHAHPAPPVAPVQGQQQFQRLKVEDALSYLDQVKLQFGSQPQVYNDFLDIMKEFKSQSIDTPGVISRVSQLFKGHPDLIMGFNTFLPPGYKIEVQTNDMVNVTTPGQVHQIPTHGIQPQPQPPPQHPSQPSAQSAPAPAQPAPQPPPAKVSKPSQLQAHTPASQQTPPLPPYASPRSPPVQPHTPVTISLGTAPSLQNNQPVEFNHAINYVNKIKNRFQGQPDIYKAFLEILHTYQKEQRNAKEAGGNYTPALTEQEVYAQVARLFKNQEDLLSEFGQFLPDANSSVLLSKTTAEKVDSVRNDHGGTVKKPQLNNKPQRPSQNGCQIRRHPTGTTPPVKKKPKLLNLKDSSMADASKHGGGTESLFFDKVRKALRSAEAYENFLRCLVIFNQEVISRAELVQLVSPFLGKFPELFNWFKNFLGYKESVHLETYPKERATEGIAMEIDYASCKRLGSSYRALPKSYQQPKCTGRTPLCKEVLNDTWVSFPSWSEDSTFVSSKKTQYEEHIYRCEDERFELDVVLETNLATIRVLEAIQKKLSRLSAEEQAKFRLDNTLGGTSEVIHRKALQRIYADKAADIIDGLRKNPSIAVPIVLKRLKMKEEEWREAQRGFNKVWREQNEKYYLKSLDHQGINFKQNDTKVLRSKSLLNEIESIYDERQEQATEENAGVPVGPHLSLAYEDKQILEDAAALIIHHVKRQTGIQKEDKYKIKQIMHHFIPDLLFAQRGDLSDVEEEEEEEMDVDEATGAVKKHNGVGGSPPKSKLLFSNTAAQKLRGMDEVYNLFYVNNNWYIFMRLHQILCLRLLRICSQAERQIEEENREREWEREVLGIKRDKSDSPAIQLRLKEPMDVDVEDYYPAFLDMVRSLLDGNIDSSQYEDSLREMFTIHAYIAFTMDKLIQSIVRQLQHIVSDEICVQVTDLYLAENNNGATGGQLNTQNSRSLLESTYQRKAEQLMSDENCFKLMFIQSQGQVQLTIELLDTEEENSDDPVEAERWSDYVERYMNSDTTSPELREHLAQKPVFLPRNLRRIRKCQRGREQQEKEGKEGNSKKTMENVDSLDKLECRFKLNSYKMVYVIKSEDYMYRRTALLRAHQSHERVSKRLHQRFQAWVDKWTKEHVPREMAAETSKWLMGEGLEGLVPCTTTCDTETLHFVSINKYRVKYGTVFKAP
UniProt Q96EE3: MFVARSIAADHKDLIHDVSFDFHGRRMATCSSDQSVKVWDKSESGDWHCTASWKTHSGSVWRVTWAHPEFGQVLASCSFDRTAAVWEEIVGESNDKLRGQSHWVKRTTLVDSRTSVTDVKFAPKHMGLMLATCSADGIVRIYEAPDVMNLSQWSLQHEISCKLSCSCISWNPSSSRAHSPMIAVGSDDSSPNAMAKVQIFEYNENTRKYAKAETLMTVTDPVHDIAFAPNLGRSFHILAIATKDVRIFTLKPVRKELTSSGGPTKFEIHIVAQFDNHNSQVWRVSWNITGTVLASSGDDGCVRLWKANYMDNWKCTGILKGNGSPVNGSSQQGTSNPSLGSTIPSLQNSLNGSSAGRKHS
UniProt Q9UHD8: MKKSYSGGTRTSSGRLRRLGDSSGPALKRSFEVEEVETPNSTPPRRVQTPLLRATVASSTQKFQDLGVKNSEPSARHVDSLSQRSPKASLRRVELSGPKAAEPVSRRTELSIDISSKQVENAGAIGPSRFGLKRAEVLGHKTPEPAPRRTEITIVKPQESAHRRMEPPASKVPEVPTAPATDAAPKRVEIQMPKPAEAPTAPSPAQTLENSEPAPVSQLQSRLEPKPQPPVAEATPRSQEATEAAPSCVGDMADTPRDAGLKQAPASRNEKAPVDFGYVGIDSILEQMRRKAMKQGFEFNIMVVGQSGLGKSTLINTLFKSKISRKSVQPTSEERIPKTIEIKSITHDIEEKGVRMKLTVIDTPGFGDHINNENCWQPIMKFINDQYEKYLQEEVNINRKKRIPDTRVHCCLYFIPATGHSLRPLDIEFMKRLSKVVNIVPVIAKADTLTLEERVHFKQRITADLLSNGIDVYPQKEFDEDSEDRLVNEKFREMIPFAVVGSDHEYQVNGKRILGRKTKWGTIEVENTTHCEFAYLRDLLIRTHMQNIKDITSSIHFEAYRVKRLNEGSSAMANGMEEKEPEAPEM
UniProt O43236: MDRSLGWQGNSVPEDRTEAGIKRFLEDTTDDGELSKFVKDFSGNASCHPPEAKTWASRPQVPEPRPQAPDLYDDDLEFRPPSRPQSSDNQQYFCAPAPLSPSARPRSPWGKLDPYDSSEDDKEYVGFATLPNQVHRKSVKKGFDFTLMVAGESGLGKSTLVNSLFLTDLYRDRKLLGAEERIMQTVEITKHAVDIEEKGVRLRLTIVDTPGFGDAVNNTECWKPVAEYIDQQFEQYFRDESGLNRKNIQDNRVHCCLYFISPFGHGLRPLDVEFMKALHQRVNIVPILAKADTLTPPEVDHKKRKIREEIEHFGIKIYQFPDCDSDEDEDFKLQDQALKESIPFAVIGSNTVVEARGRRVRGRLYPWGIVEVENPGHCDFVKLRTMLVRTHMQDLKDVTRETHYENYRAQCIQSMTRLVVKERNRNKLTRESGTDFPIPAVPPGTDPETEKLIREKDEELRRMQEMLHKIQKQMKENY
UniProt Q8IZQ5, whole entry, looked up: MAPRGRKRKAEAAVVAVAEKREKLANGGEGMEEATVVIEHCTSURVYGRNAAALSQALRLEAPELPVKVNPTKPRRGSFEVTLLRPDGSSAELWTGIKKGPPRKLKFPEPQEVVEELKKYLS
UniProt P63208, whole entry, looked up: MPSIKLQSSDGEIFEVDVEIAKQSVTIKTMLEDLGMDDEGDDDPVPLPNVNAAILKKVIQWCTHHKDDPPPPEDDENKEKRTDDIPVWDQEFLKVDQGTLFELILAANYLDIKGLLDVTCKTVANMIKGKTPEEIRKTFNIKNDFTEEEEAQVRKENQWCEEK
UniProt Q99611, whole entry, looked up: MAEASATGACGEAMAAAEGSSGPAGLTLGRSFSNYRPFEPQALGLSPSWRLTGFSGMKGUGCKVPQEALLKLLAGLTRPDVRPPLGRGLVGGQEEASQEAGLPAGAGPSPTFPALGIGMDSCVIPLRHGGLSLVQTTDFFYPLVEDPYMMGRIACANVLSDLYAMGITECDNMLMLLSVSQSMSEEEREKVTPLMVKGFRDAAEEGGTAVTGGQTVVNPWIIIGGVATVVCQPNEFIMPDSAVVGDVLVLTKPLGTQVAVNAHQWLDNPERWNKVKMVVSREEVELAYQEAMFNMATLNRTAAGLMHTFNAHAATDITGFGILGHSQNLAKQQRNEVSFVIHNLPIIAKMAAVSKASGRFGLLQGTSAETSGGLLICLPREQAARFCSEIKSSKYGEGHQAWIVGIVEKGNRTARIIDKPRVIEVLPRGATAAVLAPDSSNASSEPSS
UniProt P05543: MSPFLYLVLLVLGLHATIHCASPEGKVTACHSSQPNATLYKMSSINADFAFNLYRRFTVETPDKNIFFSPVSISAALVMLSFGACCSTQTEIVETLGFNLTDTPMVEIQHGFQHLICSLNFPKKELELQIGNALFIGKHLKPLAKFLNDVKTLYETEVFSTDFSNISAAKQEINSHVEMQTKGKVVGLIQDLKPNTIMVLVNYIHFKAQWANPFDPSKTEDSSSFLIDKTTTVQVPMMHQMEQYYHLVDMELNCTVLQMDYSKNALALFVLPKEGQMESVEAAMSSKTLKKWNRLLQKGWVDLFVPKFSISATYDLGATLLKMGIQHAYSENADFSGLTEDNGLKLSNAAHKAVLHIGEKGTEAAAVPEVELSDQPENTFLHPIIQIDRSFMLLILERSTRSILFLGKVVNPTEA

Compound: CC(C)(C)Cn1c(N)nc2ccc(-c3[nH]c(C(C)(C)C)nc3-c3ccc(F)cc3)nc21 [ralimetinib]
Test: log2 fold change, soluble protein after heating vs DMSO (PISA); higher = thermal stabilisation; K562 cells, 10 uM, 30 min; active = over 0.2 and 3.5 SD of the protein, either way, in both replicates (recomputed)
Procedure, shortened: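 Soluble protein was defined as the supernatant after 21,000xg for 90 min. It came from K562 cells at 2×10^6 cells/mL given 10 μM compound for 30 min, heated in aliquots for 3 min across 48°C-58°C, pooled, and extracted in PBS with 0.5% NP-40 at 4°C, and was quantified by TMTpro 16plex LC-MS/MS with equalised channel sums. Thermal stability against control samples, from duplicates, is reported as log2 fold change.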

log2 fold change, inactive:
SFXN2 (UniProt Q96NB2) -0.002
SESN2 (UniProt P58004) 0.21
SGPL1 (UniProt O95470) 0.159
SGTA (UniProt O43765) 0.005
SIDT2 isoform 2 (UniProt Q8NBJ9) -0.143
SHOC2 (UniProt Q9UQ13) -0.015
SEPSECS (UniProt Q9HD40) -0.02
SERINC1 (UniProt Q9NRX5) -0.106
SERPINF1 (UniProt P36955) 0.022
SIN3A (UniProt Q96ST3) 0.09
SEH1L isoform 1 (UniProt Q96EE3) -0.014
SETD3 (UniProt Q86TU7) -0.041
SEPTIN9 (UniProt Q9UHD8) -0.046
SEPTIN4 isoform 4 (UniProt O43236) 0.114
SHCBP1 (UniProt Q8NEM2) 0.025
SENP6 (UniProt Q9GZR1) -0.031
SELENOH (UniProt Q8IZQ5) 0.086
SETMAR (UniProt Q53H47) -0.025
SKP1 (UniProt P63208) -0.02
SH3GLB2 (UniProt Q9NR46) 0.033
SEPHS2 (UniProt Q99611) 0.03
SERPINA7 (UniProt P05543) -0.062
SERPINB6, A0A087X1N8 0.002

2 records picked at random from the list so far:
log2 fold change, inactive:
SIDT2 isoform 2 (UniProt Q8NBJ9) -0.143
SIN3A (UniProt Q96ST3) 0.09
